Assay results as given in patent US10064928B2, “Peptides and combination of peptides for use in immunotherapy against CLL and other cancers” (IMMATICS BIOTECHNOLOGIES GMBH, priority 2015, dated 2018).
For part of these data: Expression grades refer to the transcript from which the peptide derives; gene names, where given, were looked up from the sequence.

Columns and labels:
[1] = tested on: CLL samples compared to a panel of normal tissues; assay: Identification and label-free relative LC-MS quantitation of HLA-presented peptides (presentation profiles and scores); set-up: species or system human; key: very highly over-presented on tumors compared to a panel of normal tissues (+++); highly over-presented on tumors compared to a panel of normal tissues (++); over-presented on tumors compared to a panel of normal tissues (+); conditions: presentation score; over-presentation on tumors (CLL samples) compared to a panel of normal tissues
[2] = tested on: other tumor types (e.g. non-Hodgkin lymphoma, lung cancer); assay: Presentation of the peptides on additional tumor types (LC-MS, Tables 4A/4B, FIG. 1); set-up: species or system human; conditions: for Other relevant organs/diseases: Table 4A: additional tumor types where the peptide was over-presented on more than 5% of the measured tumor samples, or presented on more than 5% with ratio of geometric means tumor vs normal tissues larger than 3; for Additional Entities: Table 4B: additional tumour types with over-presentation (including specific presentation) on more than 5% of the measured tumour samples, or presentation on more than 5% with ratio of geometric means tumour vs normal tissues larger than 3, extended normal tissue panel
[3] = tested on: mRNA of source genes in tumors compared to a panel of normal tissues; assay: Expression profiling of source genes by RNAseq (expression scores); set-up: species or system human; key: very highly over-expressed in tumors compared to a panel of normal tissues (+++); highly over-expressed in tumors compared to a panel of normal tissues (++); over-expressed in tumors compared to a panel of normal tissues (+); conditions: expression score of the source gene, tumors vs panel of normal tissues

| Substance | Peptide Presentation [1] | Other relevant organs/diseases [2] | Additional Entities [2] | Gene Expression [3] |
| --- | --- | --- | --- | --- |
| 5: peptide found in MAP3K1 (gene looked up) (ALIFKIASA; listed as Homo sapiens) [compound 5] | +++ | AML, BRCA | Uterine Cancer | +++ |
| 31: peptide found in PARP15 (gene looked up) (ELMHGVAGV; listed as Homo sapiens) [compound 31] | ++ |  |  | +++ |
| 74: peptide found in TLR9 (gene looked up) (GLLRASFLL; listed as Homo sapiens) [compound 74] | +++ | NHL, AML, BRCA |  | ++ |
| 75: peptide found in TLR9 (gene looked up) (GLSIFAQDLRL; listed as Homo sapiens) [compound 75] |  | NHL |  | ++ |
| 91: peptide found in PLCG2 (gene looked up) (ILDLNTYNV; listed as Homo sapiens) [compound 91] |  | NHL | AML | + |
| 96: peptide found in CD37 (gene looked up) (ILIDKTSFV; listed as Homo sapiens) [compound 96] | + | NHL |  | +++ |
| 97: peptide found in CD37 (gene looked up) (LLFATQITL; listed as Homo sapiens) [compound 97] | + | NHL |  | +++ |
| 98: peptide found in CD37 (gene looked up) (SLIKYFLFV; listed as Homo sapiens) [compound 98] | +++ | NHL |  | +++ |
| 105: peptide found in ATM (gene looked up) (KLMNDIADI; listed as Homo sapiens) [compound 105] | +++ | NHL |  | ++ |
| 106: peptide found in ATM (gene looked up) (FMASHLDYL; listed as Homo sapiens) [compound 106] | +++ |  |  | + |
| 107: peptide found in ATM (gene looked up) (ILYNLYDLL; listed as Homo sapiens) [compound 107] | ++ |  | Melanoma | ++ |
| 108: peptide found in ATM (gene looked up) (VIYTLIHYI; listed as Homo sapiens) [compound 108] | + |  | BRCA, Melanoma | + |
| 116: peptide found in NUP210 (gene looked up) (LLIGATMQV; listed as Homo sapiens) [compound 116] | +++ | SCLC, NHL, AML |  | + |
| 117: peptide found in NUP210 (gene looked up) (LLILENILL; listed as Homo sapiens) [compound 117] | ++ | NHL, AML, Melanoma |  | ++ |
| 118: peptide found in NUP210 (gene looked up) (RLLILENILL; listed as Homo sapiens) [compound 118] | +++ | NHL | HNSCC | ++ |
| 119: peptide found in NUP210 (gene looked up) (VLPAEFFEV; listed as Homo sapiens) [compound 119] | +++ | NHL, AML, Urinary bladder cancer, Uterine Cancer | SCLC | ++ |
| 120: peptide found in NUP210 (gene looked up) (AIDAALTSV; listed as Homo sapiens) [compound 120] |  | NHL, AML |  | ++ |
| 121: peptide found in NUP210 (gene looked up) (RLYEITIEV; listed as Homo sapiens) [compound 121] | ++ | SCLC, NHL, AML, BRCA, OC |  | ++ |
| 146: peptide found in SMCHD1 (gene looked up) (SIIEGPIIKL; listed as Homo sapiens) [compound 146] | +++ | NHL, Urinary bladder cancer | HNSCC | +++ |
| 220: peptide found in CXCR5 (gene looked up) (ALPEILFAKV; listed as Homo sapiens) [compound 220] |  | NHL |  | ++ |
| 257: peptide found in HVCN1 (gene looked up) (RIINGIIISV; listed as Homo sapiens) [compound 257] |  | NHL | AML | +++ |

| Substance | Peptide Presentation [1] | Other relevant organs/diseases [2] | Additional Entities [2] | Gene Expression [3] |
| --- | --- | --- | --- | --- |
| 301: peptide found in NUP210 (gene looked up) (AASPIITLV; listed as Homo sapiens) [compound 301] |  |  |  | + |
| 358 (FLTDYLNDL; listed as Homo sapiens) [compound 358] | + | NHL | AML |  |
| 359 (FMQDPMEVFV; listed as Homo sapiens) [compound 359] | ++ |  | Melanoma, NHL, NSCLC, OC |  |
| 360 (HLIDTNKIQL; listed as Homo sapiens) [compound 360] | + |  | NHL, NSCLC |  |
| 362 (ILTELGGFEV; listed as Homo sapiens) [compound 362] | + | NHL | AML, PrC, BRCA, PC, CRC, HCC, HNSCC, Melanoma, NSCLC, OC, Esophageal Cancer, GC, RCC, SCLC, Urinary Bladder Cancer, Uterine Cancer |  |
| 363 (ITTEVVNELYV; listed as Homo sapiens) [compound 363] | + | NHL, Melanoma | BRCA |  |
| 364 (KMDWIFHTI; listed as Homo sapiens) [compound 364] | + | Urinary bladder cancer |  |  |
| 365 (LISPLLLPV; listed as Homo sapiens) [compound 365] | ++ | NHL, AML, Melanoma, Urinary bladder cancer | SCLC, Uterine Cancer, HNSCC |  |
| 367 (NLWSLVAKV; listed as Homo sapiens) [compound 367] | ++ | NSCLC, NHL, AML, Melanoma, OC | Uterine Cancer |  |
| 368 (QLQPTDALLCV; listed as Homo sapiens) [compound 368] | + |  | Uterine Cancer |  |
| 371 (SLADDSVLERL; listed as Homo sapiens) [compound 371] | + | RCC, HCC, NHL, AML, Esophageal Cancer, Urinary bladder cancer |  |  |
| 374 (VLSVITEEL; listed as Homo sapiens) [compound 374] | ++ | NHL, AML | SCLC, HCC, PrC, Urinary Bladder Cancer, Uterine Cancer |  |
| 375 (VLWFKPVEL; listed as Homo sapiens) [compound 375] | ++ | NSCLC, HCC, NHL, Melanoma, Esophageal Cancer | BRCA, OC, Uterine Cancer, Gallbladder Cancer, Bile Duct Cancer, HNSCC |  |
| 377 (VVDGTCVAV; listed as Homo sapiens) [compound 377] | + | NHL, Melanoma | BRCA, Uterine Cancer, HNSCC |  |
| 378 (YILGKFFAL; listed as Homo sapiens) [compound 378] | + | NHL, AML | Melanoma, Esophageal Cancer |  |
| 379 (YLAELVTPIL; listed as Homo sapiens) [compound 379] | + | NSCLC, SCLC, NHL, Melanoma | HCC, BRCA, Uterine Cancer, AML, HNSCC |  |
| 382 (YLLPLLQRL; listed as Homo sapiens) [compound 382] | +++ | NHL, AML |  |  |
| 383 (YLLREWVNL; listed as Homo sapiens) [compound 383] | +++ | HCC, NHL | Melanoma, Uterine Cancer |  |
| 384 (YMIGSEVGNYL; listed as Homo sapiens) [compound 384] | + | NHL, Urinary bladder cancer | SCLC, Uterine Cancer |  |
| 385 (YTIPLAIKL; listed as Homo sapiens) [compound 385] | +++ | NHL, AML, BRCA, Esophageal Cancer | CRC |  |
